The results in this text go back to the supplement of paper PMC10735217.

Counter-ions that a name gives are not always drawn. The list shows a part of the results. Single values are uncertain here, since repeats match poorly.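 Human kidney-derived cells stably carry a construct in which eight TEAD-binding elements drive luciferase, measured by luminescence in a drug-repurposing library screen. A hit is any compound whose signal exceeds the plate mean by more than five robust Z scores.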

The test has as its system HEK293A TEAD-LUC reporter. Description: TEAD-luciferase reporter activity (YAP activation), robust Z score vs plate; higher = stronger YAP/TEAD activation. The settings on record: 24 h. On the technique in general: In a reporter assay the amount or activity of a reporter protein is the signal.

As for `CC(C)c1c(O)ccc2c1CC[C@H]1C(C)(C)CCC[C@]21C`, the TEAD-luciferase reporter activity was inactive: 1.98 (compound concentration: 200 nM), inactive: 0.612 (compound concentration: 2 uM) and inactive: 2.99 (compound concentration: 10 uM).
The matching figures for `C1CN(CC2CC2)CCN1`: inactive: -1.61, inactive: -1.16 and inactive: -1.04.
The like results for `CC(C)Oc1ccc(-c2cc(=O)c3c(OC(C)C)cc(OC(C)C)cc3o2)cc1` were, in that order, inactive: -0.526, inactive: 0.719 and inactive: -1.5.
`CCCCC1(CN2CCN(C)CC2)C(=O)N(c2ccccc2)N(c2ccccc2)C1=O`: the TEAD-luciferase reporter activity (compound concentration: 200 nM) was inactive: -0.884, the TEAD-luciferase reporter activity (compound concentration: 2 uM) is inactive: -0.61 and the TEAD-luciferase reporter activity (compound concentration: 10 uM) was inactive: 2.31.
The like results for `CSc1nn2c(C)cc(=O)[nH]c2c1S(=O)(=O)c1ccccc1` were, in that order, inactive: -1.57, inactive: 0.68 and inactive: -1.5.
The matching figures for `CC(C)[C@H](N)C(=O)O` [L-Valine]: inactive: -1.04, inactive: -2.31 and inactive: -0.736.
Regarding `O=c1c2ccccc2nc2n1OCC2`, the TEAD-luciferase reporter activity was inactive: 0.4 (compound concentration: 200 nM), inactive: 0.435 (compound concentration: 2 uM) and inactive: 0.168 (compound concentration: 10 uM).
The like results for `C=C1C[C@]23C[C@@]1(O)CC[C@H]2[C@@]12C=C[C@H](O)[C@@](C)(C(=O)O1)[C@H]2[C@@H]3C(=O)O` were, in that order, inactive: -0.267, inactive: -0.323 and inactive: -0.448.
The like results for `CCCCc1ncc(/C=C(\Cc2cccs2)C(=O)O)n1Cc1ccc(C(=O)O)cc1` [eprosartan mesylate] were, in that order, inactive: -0.024, inactive: 1.8 and inactive: -1.43.
The like results for `CC(C)C[C@H](NC(=O)[C@@H](N)CC(N)=O)C(=O)NCC(=O)N[C@@H](CCC(=O)O)C(=O)N[C@@H](Cc1cnc[nH]1)C(=O)N1CCC[C@H]1C(=O)N[C@H](C(=O)N[C@@H](CS)C(=O)N[C@@H](CC(=O)O)C(=O)N[C@@H](CO)C(=O)O)C(C)C` were, in that order, inactive: 1.26, inactive: 0.123 and inactive: 3.52.
As for `CCCCCCCC[N+](CC)(CC)CCOC(=O)C(C1CCCC1)C1CCCC1`, the TEAD-luciferase reporter activity is inactive: -1.39 (compound concentration: 200 nM), inactive: 0.0628 (compound concentration: 2 uM) and inactive: -1.63 (compound concentration: 10 uM).
As for `CC(C)NCC(O)c1ccc(NS(C)(=O)=O)cc1` (configuration not stated), the TEAD-luciferase reporter activity was inactive: 0.669 (compound concentration: 200 nM) and inactive: 0.726 (compound concentration: 10 uM).
With `CC(C)NCC(O)c1ccc(NS(C)(=O)=O)cc1` [D-sotalol], under “compound concentration: 2 uM”, the TEAD-luciferase reporter activity was inactive: -0.122.
As for `CCCC(=O)N1CC[C@H]2CC(=O)NCC[C@H]2C1`, the TEAD-luciferase reporter activity by setting is: (compound concentration: 200 nM) inactive: -0.184; (compound concentration: 10 uM) inactive: 3.43.
Turning to `C[C@H]1CNCCCN1S(=O)(=O)c1cccc2cncc(F)c12` [Ripasudil hydrochloride hydrate], the TEAD-luciferase reporter activity is, setting by setting: (compound concentration: 200 nM) inactive: 0.119; (compound concentration: 2 uM) inactive: 4.45; (compound concentration: 10 uM) inactive: -1.28.
Take `Cc1ccc2cccc(OCc3c(Cl)ccc(N(C)C(=O)CNC(=O)/C=C/c4ccc(/C=C/c5ccncc5)nc4)c3Cl)c2n1`: the TEAD-luciferase reporter activity was inactive: -1.1 (compound concentration: 200 nM), inactive: -1.18 (compound concentration: 2 uM) and inactive: -0.229 (compound concentration: 10 uM).
The matching figures for `NCCCCCCNS(=O)(=O)c1cccc2c(Cl)cccc12`: inactive: -1.75, inactive: 0.977 and inactive: 1.55.
As for `CCCCOC(=O)c1ccc(N)cc1` [butamben, Jazz], the TEAD-luciferase reporter activity is, setting by setting: (compound concentration: 200 nM) inactive: -0.992; (compound concentration: 10 uM) inactive: -1.39.
In the case of `CCCCOC(=O)c1ccc(N)cc1` [butamben], the TEAD-luciferase reporter activity (compound concentration: 2 uM) was inactive: -1.55.
In the case of `Cc1ccc(O[C@H]2O[C@H](CCP(=O)(OC(C)C)OC(C)C)[C@@H](O)[C@H](O)[C@@H]2O)c(C)c1`, the TEAD-luciferase reporter activity (compound concentration: 200 nM) was inactive: 0.767, the TEAD-luciferase reporter activity (compound concentration: 2 uM) was inactive: 1.06 and the TEAD-luciferase reporter activity (compound concentration: 10 uM) was inactive: -0.0203.
`CC[N+](C)(CC)CCOC(=O)C1c2ccccc2Oc2ccccc21` [Methantheline]: the TEAD-luciferase reporter activity was inactive: -0.905 (compound concentration: 200 nM) and inactive: 0.657 (compound concentration: 10 uM).
For the molecule `CC[N+](C)(CC)CCOC(=O)C1c2ccccc2Oc2ccccc21` [Methantheline Bromide], under “compound concentration: 2 uM”, the TEAD-luciferase reporter activity is inactive: -1.23.
Consider `CC(C)(C)NCC(O)COc1cccc2c1CC1(CCCCC1)C2=O` (configuration not stated), for which the TEAD-luciferase reporter activity runs as follows: (compound concentration: 200 nM) inactive: -1.25; (compound concentration: 2 uM) inactive: -1.22; (compound concentration: 10 uM) inactive: 0.346.
As to `CC(=O)N(O)CCC[C@@H]1NC(=O)[C@H](CCCN(O)C(C)=O)NC(=O)[C@H](CCCN(O)C(C)=O)NC(=O)[C@@H](Cc2ccccc2)NC(=O)[C@H](CC(C)C)NC(=O)[C@H](CC(N)=O)NC1=O`, the TEAD-luciferase reporter activity is inactive: 0.162 (compound concentration: 200 nM), inactive: -0.55 (compound concentration: 2 uM) and inactive: -0.0542 (compound concentration: 10 uM).
The matching figures for `O=[N+]([O-])c1ccc(C=NO)o1` [Nifuroxime]: inactive: 0.594, inactive: 0.394 and inactive: -0.965.
The like results for `N=C(N)Nc1ccc(C(=O)Oc2ccc3cc(C(=N)N)ccc3c2)cc1` [nafamostat mesilate, Mucokinetica] were, in that order, inactive: -0.436, inactive: -0.176 and inactive: 0.555.
The like results for `CS(=O)(=O)c1ccccc1-c1ccc(CCNS(=O)(=O)c2cc(C(N)=NO)ccc2O)c(OCC(=O)O)c1` were, in that order, inactive: -1.45, inactive: 1.3 and inactive: 0.83.
Consider `Nc1nc(/C(=C/CC(=O)O)C(=O)N[C@@H]2C(=O)N3C(C(=O)O)=CCS[C@H]23)cs1` [ceftibuten], for which the TEAD-luciferase reporter activity (compound concentration: 2 uM) was inactive: 1.22.
